{"source": "PubChem BioAssay AID720505 (Drosophila RNAi Screening Center, 2013)", "assay": "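Knock-downs that reduce calcium influx once internal stores are emptied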 (primary screen)", "cells": "Drosophila S2R+ cells", "knock-down reagent": "long dsRNA against Drosophila genes", "challenge": "thapsigargin (2 µM) in calcium-free buffer to empty internal stores, then 2 mM calcium added back", "detection": "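Stores emptied by 2 µM thapsigargin without calcium, then 2 mM calcium re-added; fluo-4 fluorescence followed by FLIPR in 384-well plates, per-well averaged endpoint, raw; two screen passes, some wells retested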", "scale": "calcium signal and retest calcium signal: higher = more calcium entry after store depletion", "hit rule": "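Knock-downs counted as hits when calcium entry dropped relative to STIM1 positive and Rho1 negative controls present on each plate; roughly 1500 genes called, with reductions of differing size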", "meaning of the calls": "active = called as lowering calcium entry; inactive = not called", "note": "In all, the deposit lists about 20,000 reagents; below is an unselected part of those with a known target gene and a result. In the full data, about 2,100 (10%) got an active call. 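Raw plate signals without normalisation; calls rest on control-based scores that were not deposited; replicate 2 separates called from uncalled poorly.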 Names joined by + are all predicted targets of the reagent. The record does not give: the amount of reagent, the time to read-out."}
{"Target gene": "IM33 (Immune induced molecule 33)", "amplicon": "DRSC00476", "calcium signal, replicate 1": 156, "calcium signal, replicate 2": 103, "activity call": "inactive"}
{"Target gene": "CG32815", "amplicon": "DRSC18177", "calcium signal, replicate 1": 64.6, "calcium signal, replicate 2": 150, "activity call": "active"}
{"Target gene": "CG32815", "amplicon": "DRSC18179", "calcium signal, replicate 1": 90.1, "calcium signal, replicate 2": 144, "activity call": "inactive"}
{"Target gene": "tsg (twisted gastrulation)", "amplicon": "DRSC20380", "calcium signal, replicate 1": 121, "calcium signal, replicate 2": 90, "activity call": "inactive"}
{"Target gene": "CG2269", "amplicon": "DRSC06833", "calcium signal, replicate 1": 193, "calcium signal, replicate 2": 154, "activity call": "inactive"}
{"Target gene": "dgt5 (dim gamma-tubulin 5)", "amplicon": "DRSC07280", "calcium signal, replicate 1": 204, "calcium signal, replicate 2": 161, "activity call": "inactive"}

Records above with an active call:
{"Target gene": "CG32815", "amplicon": "DRSC18177", "calcium signal, replicate 1": 64.6, "calcium signal, replicate 2": 150, "activity call": "active"}

Next records:
{"Target gene": "CG3337", "amplicon": "DRSC15478", "calcium signal, replicate 1": 100, "calcium signal, replicate 2": 142, "activity call": "inactive"}
{"Target gene": "Myo95E (Myosin 95E)", "amplicon": "DRSC15821", "calcium signal, replicate 1": 165, "calcium signal, replicate 2": 187, "activity call": "inactive"}
{"Target gene": "CG4053", "amplicon": "DRSC15538", "calcium signal, replicate 1": 103, "calcium signal, replicate 2": 172, "retest calcium signal, replicate 1": 89.7, "retest calcium signal, replicate 2": 126, "activity call": "inactive"}
{"Target gene": "CG18294 + 825-Oak + CG32214 + 2 more", "amplicon": "DRSC22210", "calcium signal, replicate 1": 98.8, "calcium signal, replicate 2": 262, "activity call": "inactive"}
{"Target gene": "stv (starvin)", "amplicon": "DRSC09796", "calcium signal, replicate 1": 110, "calcium signal, replicate 2": 114, "activity call": "inactive"}
{"Target gene": "stv (starvin)", "amplicon": "DRSC10111", "calcium signal, replicate 1": 52.3, "calcium signal, replicate 2": 105, "activity call": "active"}
{"Target gene": "ome (omega)", "amplicon": "DRSC10282", "calcium signal, replicate 1": 61.9, "calcium signal, replicate 2": 70.8, "activity call": "active"}
{"Target gene": "ome (omega)", "amplicon": "DRSC11380", "calcium signal, replicate 1": 119, "calcium signal, replicate 2": 174, "activity call": "inactive"}
{"Target gene": "P32", "amplicon": "DRSC06988", "calcium signal, replicate 1": 152, "calcium signal, replicate 2": 140, "activity call": "inactive"}
{"Target gene": "ric8a", "amplicon": "DRSC18093", "calcium signal, replicate 1": 111, "calcium signal, replicate 2": 104, "activity call": "inactive"}
{"Target gene": "Psf2 (Partner of Sld Five 2)", "amplicon": "DRSC00516", "calcium signal, replicate 1": 112, "calcium signal, replicate 2": 84.8, "activity call": "inactive"}
{"Target gene": "Acbp6 (Acyl-CoA binding protein 6)", "amplicon": "DRSC10217", "calcium signal, replicate 1": 72, "calcium signal, replicate 2": 57.1, "activity call": "inactive"}
{"Target gene": "CG8543", "amplicon": "DRSC10990", "calcium signal, replicate 1": 121, "calcium signal, replicate 2": 107, "activity call": "inactive"}
{"Target gene": "CG8543", "amplicon": "DRSC22809", "calcium signal, replicate 1": 104, "calcium signal, replicate 2": 118, "activity call": "inactive"}
